Data taken from US8980881B2, “Crystalline forms of (R)-8-chloro-1-methyl-2,3,4,5-tetrahydro-1H-3-benzazepine hydrochloride” (priority 2004, dated 2015).
Counter-ions that a name gives are not always drawn. Some of these results come from one statement about several compounds together.

Experiment: Dynamic vapor sorption (DVS) scan, with XRPD after the cycle
Type: physicochemical
Details: DVS data
Source text: FIG. 4 depicts a dynamic vapor sorption (DVS) scan for crystalline Form I of the invention (VTI dynamic vapor desorption analyzer).
FIG. 8 depicts a dynamic vapor sorption (DVS) scan for crystalline Form II of the invention (VTI dynamic vapor desorption analyzer).
FIG. 12 depicts a dynamic vapor sorption (DVS) scan for crystalline Form III of the invention.
The various crystalline forms of (R)-8-chloro-1-methyl-2,3,4,5-tetrahydro-1H-3-benzazepine hydrochloride can be identified by their unique solid state signatures with respect to, for example, differential scanning calorimetry (DSC), X-ray powder diffraction (XRPD), and other solid state methods. Further characterization with respect to water or solvent content of the crystalline forms can be gauged by any of various routine methods such as thermogravimetric analysis (TGA), dynamic vapor sorption (DVS), DSC and other techniques. For DSC, it is known that the temperatures observed will depend upon the rate of temperature change as well as sample preparation technique and the particular instrument employed. Thus, the values reported herein relating to DSC thermograms can vary by plus or minus about 4° C. For XRPD, the relative intensities of the peaks can vary, depending upon the sample preparation technique, the sample mounting procedure and the particular instrument employed. […]

Compound	RH above which moisture is readily adsorbed
C[C@H]1CNCCc2ccc(Cl)cc21 [Form II, (R)-8-chloro-1-methyl-2,3,4,5-tetrahydro-1H-3-benzazepine hydrochloride]	40-60 % RH
C[C@H]1CNCCc2ccc(Cl)cc21 [Form I, (R)-8-chloro-1-methyl-2,3,4,5-tetrahydro-1H-3-benzazepine hydrochloride]	40-60 % RH
